Source: PMC9999558
Results are given in words; binding and its absence hold for the method and conditions named. Binding seen in cells or lysates may run through a third protein. Some binding calls cover weakened binding; strength is not graded here.

Chains of the proteins cited; added tags and fusions are not shown. Lines headed by an entry give the natural chain unless they say otherwise; changes in a name come on top.
UniProt Q9BYW2: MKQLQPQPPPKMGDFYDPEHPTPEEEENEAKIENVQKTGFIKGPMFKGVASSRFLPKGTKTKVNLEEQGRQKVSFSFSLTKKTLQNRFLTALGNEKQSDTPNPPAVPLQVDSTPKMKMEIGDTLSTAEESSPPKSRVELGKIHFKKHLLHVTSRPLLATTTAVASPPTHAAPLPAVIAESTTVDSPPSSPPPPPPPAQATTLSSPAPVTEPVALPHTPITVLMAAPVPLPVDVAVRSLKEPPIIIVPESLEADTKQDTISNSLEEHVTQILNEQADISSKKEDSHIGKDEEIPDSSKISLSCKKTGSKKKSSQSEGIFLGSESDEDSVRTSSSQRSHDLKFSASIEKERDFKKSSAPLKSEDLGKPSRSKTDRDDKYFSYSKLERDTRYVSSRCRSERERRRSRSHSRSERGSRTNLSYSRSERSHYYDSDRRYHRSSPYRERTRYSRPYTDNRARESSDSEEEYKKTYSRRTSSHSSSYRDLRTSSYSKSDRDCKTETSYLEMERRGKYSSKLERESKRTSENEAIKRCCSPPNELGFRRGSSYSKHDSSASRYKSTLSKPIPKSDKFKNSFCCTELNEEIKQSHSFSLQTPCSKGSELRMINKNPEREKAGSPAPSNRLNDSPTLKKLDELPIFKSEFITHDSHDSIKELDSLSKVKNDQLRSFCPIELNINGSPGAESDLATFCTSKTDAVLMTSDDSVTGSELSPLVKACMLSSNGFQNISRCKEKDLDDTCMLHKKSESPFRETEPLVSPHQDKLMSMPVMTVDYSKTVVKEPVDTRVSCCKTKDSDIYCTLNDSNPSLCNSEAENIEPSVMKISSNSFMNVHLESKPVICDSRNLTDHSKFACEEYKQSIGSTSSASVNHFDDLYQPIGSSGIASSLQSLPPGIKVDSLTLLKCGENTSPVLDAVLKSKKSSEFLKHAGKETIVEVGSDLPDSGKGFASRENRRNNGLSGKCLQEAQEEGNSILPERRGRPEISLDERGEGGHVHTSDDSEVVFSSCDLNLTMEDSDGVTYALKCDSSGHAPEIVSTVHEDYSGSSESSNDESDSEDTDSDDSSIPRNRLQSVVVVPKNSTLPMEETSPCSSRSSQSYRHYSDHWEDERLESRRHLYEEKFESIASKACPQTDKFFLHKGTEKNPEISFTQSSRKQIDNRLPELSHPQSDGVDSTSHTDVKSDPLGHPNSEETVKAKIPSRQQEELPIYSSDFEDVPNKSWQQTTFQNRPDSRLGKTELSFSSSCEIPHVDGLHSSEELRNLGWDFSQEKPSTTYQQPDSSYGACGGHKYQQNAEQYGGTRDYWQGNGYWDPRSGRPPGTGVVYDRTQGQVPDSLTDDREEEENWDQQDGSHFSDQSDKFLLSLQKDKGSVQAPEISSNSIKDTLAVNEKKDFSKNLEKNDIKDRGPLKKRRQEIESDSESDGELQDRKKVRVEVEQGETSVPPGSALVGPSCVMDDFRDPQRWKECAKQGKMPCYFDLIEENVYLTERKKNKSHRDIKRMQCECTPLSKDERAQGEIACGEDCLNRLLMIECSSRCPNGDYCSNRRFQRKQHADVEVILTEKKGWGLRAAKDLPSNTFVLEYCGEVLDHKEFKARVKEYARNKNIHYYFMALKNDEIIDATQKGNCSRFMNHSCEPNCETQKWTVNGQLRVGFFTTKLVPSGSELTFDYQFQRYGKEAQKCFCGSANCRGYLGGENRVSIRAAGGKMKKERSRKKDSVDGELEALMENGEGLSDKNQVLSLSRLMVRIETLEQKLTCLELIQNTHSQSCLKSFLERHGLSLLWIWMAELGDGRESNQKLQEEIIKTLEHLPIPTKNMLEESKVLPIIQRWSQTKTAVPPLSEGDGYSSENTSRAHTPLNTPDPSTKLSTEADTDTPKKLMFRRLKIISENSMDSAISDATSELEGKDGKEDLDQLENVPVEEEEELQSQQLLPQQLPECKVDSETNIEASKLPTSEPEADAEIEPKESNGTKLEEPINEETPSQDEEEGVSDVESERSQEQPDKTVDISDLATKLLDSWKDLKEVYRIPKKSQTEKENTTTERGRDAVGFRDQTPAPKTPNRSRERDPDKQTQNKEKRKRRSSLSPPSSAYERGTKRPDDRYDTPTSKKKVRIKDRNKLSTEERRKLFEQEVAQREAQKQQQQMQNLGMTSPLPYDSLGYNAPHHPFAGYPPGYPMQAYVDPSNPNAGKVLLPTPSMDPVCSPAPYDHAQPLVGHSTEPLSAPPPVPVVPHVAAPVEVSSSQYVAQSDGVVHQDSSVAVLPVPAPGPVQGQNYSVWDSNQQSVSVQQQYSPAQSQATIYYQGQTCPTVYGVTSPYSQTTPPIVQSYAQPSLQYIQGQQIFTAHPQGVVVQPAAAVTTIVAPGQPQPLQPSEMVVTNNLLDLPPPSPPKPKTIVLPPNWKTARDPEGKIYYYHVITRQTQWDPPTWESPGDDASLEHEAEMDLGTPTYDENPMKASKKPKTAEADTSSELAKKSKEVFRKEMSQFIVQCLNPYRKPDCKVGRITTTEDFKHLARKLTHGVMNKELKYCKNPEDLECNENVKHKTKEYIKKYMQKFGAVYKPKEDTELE
UniProt Q00987: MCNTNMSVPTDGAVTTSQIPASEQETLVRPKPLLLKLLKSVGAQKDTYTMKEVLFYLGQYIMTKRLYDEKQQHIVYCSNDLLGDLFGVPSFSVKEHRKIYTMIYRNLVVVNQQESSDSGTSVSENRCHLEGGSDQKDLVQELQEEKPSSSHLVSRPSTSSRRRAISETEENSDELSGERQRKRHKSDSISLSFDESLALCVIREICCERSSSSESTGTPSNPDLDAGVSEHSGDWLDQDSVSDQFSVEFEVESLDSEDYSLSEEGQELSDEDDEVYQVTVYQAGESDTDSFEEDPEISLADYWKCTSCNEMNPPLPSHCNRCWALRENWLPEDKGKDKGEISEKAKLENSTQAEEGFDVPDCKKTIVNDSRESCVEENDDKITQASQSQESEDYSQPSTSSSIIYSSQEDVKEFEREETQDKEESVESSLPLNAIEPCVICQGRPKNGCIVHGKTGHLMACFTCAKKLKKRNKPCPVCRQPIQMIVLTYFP

Key:
Test in all cases: co-IP; endogenous proteins from total lysates of ROSA KIT D816V cells (control medium) and of HMC-1 cells after 24 h proteasome inhibition (10 nM bortezomib); immunoblotting; negative control with a resin conjugated with an anti-IgG1 antibody
[1] = target: hyper-ubiquitinated SETD2 (human (endogenous in ROSA KIT D816V and HMC-1)) (UniProt Q9BYW2)
[2] = target: SETD2 (human (endogenous in ROSA KIT D816V and HMC-1)) (UniProt Q9BYW2)
[3] = target: serine/threonine-phosphorylated form of SETD2 (human (endogenous in HMC-1)) (UniProt Q9BYW2)

Molecule	binding [3]	further results
MDM2 (from UniProt Q00987 1-491) (enzyme)		binding [1]: binds
p53 (from UniProt P04637 1-393)		binding [2]: binds
Aurora kinase A (enzyme, UniProt O14965 1-403) MDRSKENCISGPVKATAPVGGPKRVLVTQQFPCQNPLPVNSGQAQRVLCPSNSSQRIPLQAQKLVSSHKPVQNQKQKQLQATSVPHPVSRPLNNTQKSKQPLPSAPENNPEEELASKQKNEESKKRQWALEDFEIGRPLGKGKFGNVYLAREKQSKFILALKVLFKAQLEKAGVEHQLRREVEIQSHLRHPNILRLYGYFHDATRVYLILEYAPLGTVYRELQKLSKFDEQRTATYITELANALSYCHSKRVIHRDIKPENLLLGSAGELKIADFGWSVHAPSSRRTTLCGTLDYLPPEMIEGRMHDEKVDLWSLGVLCYEFLVGKPPFEANTYQETYKRISRVEFTFPDFVTEGARDLISRLLKHNPSQRPMLREVLEHPWITANSSKPSNCQNKESASKQS	binds	
phospho-Aurora A (enzyme, UniProt O14965 1-403, phospho-T288) MDRSKENCISGPVKATAPVGGPKRVLVTQQFPCQNPLPVNSGQAQRVLCPSNSSQRIPLQAQKLVSSHKPVQNQKQKQLQATSVPHPVSRPLNNTQKSKQPLPSAPENNPEEELASKQKNEESKKRQWALEDFEIGRPLGKGKFGNVYLAREKQSKFILALKVLFKAQLEKAGVEHQLRREVEIQSHLRHPNILRLYGYFHDATRVYLILEYAPLGTVYRELQKLSKFDEQRTATYITELANALSYCHSKRVIHRDIKPENLLLGSAGELKIADFGWSVHAPSSRRTTLCGTLDYLPPEMIEGRMHDEKVDLWSLGVLCYEFLVGKPPFEANTYQETYKRISRVEFTFPDFVTEGARDLISRLLKHNPSQRPMLREVLEHPWITANSSKPSNCQNKESASKQS	binds	
